Results on 39 targets are retold here after the supplement of paper PMC10849652.

Sequences of proteins named here, by UniProt entry; tags and fusion partners are left off. A change or cut given only in a name is not applied to a line headed by its entry.
UniProt Q9BSK2: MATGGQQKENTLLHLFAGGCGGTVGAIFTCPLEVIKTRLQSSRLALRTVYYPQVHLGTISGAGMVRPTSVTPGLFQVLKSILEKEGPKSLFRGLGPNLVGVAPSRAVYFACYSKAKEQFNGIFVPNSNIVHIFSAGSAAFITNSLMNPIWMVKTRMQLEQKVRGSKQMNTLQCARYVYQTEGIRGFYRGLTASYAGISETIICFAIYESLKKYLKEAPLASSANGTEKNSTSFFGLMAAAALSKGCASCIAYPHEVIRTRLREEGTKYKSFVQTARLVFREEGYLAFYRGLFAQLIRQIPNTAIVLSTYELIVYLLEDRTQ
UniProt O75746: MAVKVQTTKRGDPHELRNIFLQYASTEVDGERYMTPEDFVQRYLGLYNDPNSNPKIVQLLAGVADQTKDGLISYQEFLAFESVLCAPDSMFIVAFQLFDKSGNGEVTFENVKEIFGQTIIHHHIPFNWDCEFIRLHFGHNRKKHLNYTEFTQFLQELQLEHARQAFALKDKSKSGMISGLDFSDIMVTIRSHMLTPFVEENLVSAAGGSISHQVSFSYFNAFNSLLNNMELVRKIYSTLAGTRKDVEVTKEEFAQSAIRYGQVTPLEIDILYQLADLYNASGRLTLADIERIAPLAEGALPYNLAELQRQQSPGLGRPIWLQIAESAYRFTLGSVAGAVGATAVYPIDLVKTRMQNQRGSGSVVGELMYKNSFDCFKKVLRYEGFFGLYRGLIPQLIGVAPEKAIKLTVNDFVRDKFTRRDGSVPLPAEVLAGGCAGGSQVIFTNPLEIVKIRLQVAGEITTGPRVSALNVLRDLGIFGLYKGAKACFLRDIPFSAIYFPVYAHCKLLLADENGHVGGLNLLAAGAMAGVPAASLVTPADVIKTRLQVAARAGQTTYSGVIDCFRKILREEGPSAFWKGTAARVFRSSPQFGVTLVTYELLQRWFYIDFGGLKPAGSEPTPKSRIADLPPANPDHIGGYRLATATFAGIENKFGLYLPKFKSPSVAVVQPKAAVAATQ
UniProt Q9UHW9: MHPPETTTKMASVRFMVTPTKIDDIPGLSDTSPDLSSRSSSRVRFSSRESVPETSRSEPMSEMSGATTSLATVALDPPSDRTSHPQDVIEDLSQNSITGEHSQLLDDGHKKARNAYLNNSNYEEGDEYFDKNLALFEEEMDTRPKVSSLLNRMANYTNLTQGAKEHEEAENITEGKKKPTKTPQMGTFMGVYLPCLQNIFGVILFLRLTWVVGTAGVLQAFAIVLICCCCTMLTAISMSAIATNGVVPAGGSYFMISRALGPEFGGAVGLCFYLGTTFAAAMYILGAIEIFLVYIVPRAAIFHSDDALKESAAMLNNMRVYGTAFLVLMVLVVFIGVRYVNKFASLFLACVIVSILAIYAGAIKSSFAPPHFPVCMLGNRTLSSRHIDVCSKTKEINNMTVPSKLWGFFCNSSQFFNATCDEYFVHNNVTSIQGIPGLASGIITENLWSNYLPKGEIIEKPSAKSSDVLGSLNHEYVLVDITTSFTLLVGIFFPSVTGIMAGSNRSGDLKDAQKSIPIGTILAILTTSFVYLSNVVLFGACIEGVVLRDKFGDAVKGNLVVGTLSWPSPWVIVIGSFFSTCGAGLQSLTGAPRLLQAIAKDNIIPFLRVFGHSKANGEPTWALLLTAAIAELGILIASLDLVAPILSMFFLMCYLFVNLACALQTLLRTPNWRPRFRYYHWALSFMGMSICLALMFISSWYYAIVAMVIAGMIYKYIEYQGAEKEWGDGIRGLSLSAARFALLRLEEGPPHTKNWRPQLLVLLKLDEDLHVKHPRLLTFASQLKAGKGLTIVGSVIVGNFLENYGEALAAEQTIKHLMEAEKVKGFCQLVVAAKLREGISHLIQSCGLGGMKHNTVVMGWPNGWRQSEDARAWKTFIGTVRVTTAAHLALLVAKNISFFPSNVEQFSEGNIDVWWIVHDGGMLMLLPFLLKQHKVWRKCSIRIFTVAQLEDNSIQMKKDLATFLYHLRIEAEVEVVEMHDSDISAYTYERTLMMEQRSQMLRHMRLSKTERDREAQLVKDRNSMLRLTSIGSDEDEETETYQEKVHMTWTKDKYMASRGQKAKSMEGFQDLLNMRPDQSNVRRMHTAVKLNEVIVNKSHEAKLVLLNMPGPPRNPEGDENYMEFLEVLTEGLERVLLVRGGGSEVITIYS
UniProt Q92504: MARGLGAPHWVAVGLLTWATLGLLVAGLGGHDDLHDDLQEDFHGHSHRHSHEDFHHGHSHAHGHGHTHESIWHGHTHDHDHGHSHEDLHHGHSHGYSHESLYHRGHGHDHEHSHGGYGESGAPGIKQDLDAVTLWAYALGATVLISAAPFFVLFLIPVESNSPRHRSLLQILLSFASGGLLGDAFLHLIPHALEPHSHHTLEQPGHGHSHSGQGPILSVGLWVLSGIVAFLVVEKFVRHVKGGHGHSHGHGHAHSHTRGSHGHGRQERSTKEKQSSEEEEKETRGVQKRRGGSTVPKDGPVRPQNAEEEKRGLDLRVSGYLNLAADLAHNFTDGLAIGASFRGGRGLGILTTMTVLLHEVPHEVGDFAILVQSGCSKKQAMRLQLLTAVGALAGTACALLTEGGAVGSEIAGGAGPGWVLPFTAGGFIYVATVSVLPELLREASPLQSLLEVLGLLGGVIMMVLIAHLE
UniProt Q8NBI5: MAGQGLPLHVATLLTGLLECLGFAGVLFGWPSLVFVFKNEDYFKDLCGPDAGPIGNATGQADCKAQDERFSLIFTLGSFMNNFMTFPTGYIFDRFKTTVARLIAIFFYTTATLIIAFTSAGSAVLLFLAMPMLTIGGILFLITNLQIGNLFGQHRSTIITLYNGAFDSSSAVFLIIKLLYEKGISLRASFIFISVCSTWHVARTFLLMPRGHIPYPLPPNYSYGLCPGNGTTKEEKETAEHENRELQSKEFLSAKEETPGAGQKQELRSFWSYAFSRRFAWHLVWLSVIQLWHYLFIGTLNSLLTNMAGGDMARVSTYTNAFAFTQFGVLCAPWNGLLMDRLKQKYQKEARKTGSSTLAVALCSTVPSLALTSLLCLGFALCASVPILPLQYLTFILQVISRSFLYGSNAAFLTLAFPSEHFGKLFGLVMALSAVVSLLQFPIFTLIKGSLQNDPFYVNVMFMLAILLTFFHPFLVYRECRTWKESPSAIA
UniProt O43826: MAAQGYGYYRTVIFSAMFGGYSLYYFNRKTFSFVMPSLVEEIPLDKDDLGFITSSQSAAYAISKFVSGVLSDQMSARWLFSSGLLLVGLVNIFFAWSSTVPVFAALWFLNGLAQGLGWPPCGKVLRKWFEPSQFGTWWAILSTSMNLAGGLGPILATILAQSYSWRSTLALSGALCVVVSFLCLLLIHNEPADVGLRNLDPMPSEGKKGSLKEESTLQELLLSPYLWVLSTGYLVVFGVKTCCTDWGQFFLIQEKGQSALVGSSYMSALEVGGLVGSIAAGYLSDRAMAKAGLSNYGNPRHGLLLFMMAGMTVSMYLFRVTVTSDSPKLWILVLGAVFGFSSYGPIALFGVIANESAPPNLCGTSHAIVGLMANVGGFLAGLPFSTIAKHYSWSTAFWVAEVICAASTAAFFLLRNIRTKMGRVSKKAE
UniProt O43772: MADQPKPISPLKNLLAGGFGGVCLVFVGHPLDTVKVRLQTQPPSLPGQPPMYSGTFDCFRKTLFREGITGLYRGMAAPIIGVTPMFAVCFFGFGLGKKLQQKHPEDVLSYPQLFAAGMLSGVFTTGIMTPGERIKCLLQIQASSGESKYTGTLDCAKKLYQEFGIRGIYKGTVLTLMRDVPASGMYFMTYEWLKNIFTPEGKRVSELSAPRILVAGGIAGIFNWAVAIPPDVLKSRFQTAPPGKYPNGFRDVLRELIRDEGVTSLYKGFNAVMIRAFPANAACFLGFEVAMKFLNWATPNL
UniProt Q9H2D1: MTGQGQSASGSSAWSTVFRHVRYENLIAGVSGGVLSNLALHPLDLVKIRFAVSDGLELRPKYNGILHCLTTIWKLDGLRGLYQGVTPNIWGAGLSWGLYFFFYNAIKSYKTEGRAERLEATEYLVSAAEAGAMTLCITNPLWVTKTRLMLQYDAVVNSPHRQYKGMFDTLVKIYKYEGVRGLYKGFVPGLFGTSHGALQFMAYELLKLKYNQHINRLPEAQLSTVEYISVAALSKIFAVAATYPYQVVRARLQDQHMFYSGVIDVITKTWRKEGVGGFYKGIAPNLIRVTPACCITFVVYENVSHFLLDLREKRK
UniProt Q15758: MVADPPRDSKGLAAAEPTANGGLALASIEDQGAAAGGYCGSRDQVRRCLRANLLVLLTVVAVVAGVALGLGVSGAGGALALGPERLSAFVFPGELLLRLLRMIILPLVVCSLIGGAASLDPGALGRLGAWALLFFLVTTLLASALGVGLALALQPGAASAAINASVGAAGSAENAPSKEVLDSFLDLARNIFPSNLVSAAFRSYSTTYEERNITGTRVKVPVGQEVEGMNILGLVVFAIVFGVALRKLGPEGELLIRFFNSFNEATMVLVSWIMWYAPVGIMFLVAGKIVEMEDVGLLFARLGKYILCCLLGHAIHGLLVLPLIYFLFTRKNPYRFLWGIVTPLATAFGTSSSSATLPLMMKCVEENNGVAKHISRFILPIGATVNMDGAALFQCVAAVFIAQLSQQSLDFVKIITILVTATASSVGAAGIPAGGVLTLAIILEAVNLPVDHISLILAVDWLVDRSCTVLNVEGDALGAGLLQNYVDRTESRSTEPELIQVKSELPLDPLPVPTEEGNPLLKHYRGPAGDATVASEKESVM
UniProt P48029: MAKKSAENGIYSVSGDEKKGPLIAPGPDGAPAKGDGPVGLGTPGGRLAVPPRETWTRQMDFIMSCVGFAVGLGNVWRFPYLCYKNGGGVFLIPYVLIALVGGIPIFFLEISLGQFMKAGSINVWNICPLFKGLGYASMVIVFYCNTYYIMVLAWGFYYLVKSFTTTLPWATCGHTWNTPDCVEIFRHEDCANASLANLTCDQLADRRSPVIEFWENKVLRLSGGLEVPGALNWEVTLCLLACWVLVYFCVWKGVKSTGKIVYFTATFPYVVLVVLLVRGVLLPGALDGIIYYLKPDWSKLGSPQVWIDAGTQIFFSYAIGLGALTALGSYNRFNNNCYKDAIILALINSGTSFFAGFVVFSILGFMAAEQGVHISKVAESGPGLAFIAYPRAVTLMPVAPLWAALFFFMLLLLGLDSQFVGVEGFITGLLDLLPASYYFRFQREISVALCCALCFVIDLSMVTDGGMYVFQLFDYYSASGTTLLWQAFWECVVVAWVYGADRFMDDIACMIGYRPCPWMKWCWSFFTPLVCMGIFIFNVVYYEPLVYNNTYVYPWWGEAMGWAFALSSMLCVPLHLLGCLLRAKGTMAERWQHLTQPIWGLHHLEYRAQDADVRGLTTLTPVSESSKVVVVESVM
UniProt P55011: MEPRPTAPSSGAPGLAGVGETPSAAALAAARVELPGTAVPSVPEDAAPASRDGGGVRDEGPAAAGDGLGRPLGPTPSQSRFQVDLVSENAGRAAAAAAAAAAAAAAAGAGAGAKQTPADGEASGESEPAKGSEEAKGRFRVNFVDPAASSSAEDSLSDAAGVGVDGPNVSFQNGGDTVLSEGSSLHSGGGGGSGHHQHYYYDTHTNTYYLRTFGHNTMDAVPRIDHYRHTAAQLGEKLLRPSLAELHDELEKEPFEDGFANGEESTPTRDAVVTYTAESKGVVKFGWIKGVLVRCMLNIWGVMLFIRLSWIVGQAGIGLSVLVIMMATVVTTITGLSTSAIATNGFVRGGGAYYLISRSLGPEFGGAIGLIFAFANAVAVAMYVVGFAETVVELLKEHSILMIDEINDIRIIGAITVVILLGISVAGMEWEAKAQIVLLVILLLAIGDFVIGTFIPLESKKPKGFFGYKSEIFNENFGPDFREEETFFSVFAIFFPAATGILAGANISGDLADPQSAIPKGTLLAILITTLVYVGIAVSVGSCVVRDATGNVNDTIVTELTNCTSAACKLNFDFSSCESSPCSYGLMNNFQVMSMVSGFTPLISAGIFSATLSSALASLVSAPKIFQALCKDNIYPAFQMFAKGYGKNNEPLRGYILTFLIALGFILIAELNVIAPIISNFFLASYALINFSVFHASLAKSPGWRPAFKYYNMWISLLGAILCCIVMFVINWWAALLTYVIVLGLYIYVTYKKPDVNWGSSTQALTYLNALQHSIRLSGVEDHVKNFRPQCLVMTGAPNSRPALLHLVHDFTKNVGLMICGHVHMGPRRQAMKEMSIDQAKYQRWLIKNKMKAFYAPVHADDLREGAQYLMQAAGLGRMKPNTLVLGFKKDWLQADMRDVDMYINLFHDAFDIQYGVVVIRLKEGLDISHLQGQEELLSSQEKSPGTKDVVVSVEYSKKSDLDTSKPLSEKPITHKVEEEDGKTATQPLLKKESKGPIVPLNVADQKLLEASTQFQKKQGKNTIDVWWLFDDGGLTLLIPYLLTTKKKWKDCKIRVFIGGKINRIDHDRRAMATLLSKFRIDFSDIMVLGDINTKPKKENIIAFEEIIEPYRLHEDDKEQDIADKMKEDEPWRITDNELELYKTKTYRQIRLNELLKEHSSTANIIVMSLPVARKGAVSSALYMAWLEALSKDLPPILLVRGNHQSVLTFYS

The other results are listed elsewhere or left out.

Compound in the first assay: C=CC(=O)N1CCC[C@@H](n2nc(-c3ccc(Oc4ccccc4)cc3)c3c(N)ncnc32)C1 [ibrutinib]
Nature of the assay: log2 fold change, soluble protein after heating vs DMSO (PISA); higher = thermal stabilisation; K562 cells, 10 uM, 30 min; active = over 0.2 and 3.5 SD of the protein, either way, in both replicates (recomputed). Put shortly:
(§1)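 K562 cells at 2×10^6 cells/mL were treated for 30 min with 10 μM compound, and aliquots were heated for 3 min over 48°C-58°C before pooling. Extraction used PBS with 0.5% NP-40 at 4°C, and soluble protein was the supernatant after 21,000xg for 90 min, measured by TMTpro 16plex LC-MS/MS with channel sums equalised. Thermal stability values, relative to control samples and from duplicates, are log2 fold changes.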
On to SLC25A33 (UniProt Q9BSK2), for which the log2 fold change is inactive: 0.01.

As to SLC4A7 isoform 7 (UniProt Q9Y6M7), the log2 fold change is inactive: 0.151.

In the case of SLC25A12 (UniProt O75746), the log2 fold change is inactive: 0.02.

For the target SLC12A6 isoform 2 (UniProt Q9UHW9), the log2 fold change was inactive: 0.108.

For the target SLC39A7 (UniProt Q92504), the log2 fold change was inactive: 0.015.

Regarding SLC43A3 isoform 2 (UniProt Q8NBI5), the log2 fold change is inactive: 0.007.

On to SLC37A4 isoform 2 (UniProt O43826), for which the log2 fold change is inactive: -0.036.

Consider SLC25A11 (UniProt Q02978), for which the log2 fold change is inactive: 0.032.

Consider SLC25A21 (UniProt Q9BQT8), for which the log2 fold change is inactive: 0.005.

SLC25A10 isoform 2 (UniProt Q9UBX3): the log2 fold change is inactive: 0.007.

Take SLC25A19 (UniProt Q9HC21): the log2 fold change was inactive: 0.009.

SLC2A1 (UniProt P11166): the log2 fold change is inactive: 0.014.

With SLC29A1 isoform 2 (UniProt Q99808), the log2 fold change is inactive: 0.054.

Consider SLC30A9 (UniProt Q6PML9), for which the log2 fold change is inactive: 0.012.

For the target SLC25A20 (UniProt O43772), the log2 fold change is inactive: 0.033.

Turning to SLC39A10 (UniProt Q9ULF5), the log2 fold change was inactive: 0.057.

Regarding SLC20A2 (UniProt Q08357), the log2 fold change is inactive: 0.003.

On to SLC1A4 (UniProt P43007), for which the log2 fold change was inactive: 0.033.

On to SLC30A5 (UniProt Q8TAD4), for which the log2 fold change is inactive: -0.08.

With SLC25A3 isoform 2 (UniProt Q00325), the log2 fold change is inactive: 0.021.

For the target SLC7A5 (UniProt Q01650), the log2 fold change is inactive: 0.004.

With SLC35B3 (UniProt Q9H1N7), the log2 fold change is inactive: 0.03.

On to SLC7A1 (UniProt P30825), for which the log2 fold change is inactive: 0.012.

In the case of SLC25A40 (UniProt Q8TBP6), the log2 fold change is inactive: -0.009.

Regarding SLC2A3 (UniProt P11169), the log2 fold change is inactive: 0.034.

For SLC26A6 (UniProt Q9BXS9), the log2 fold change was inactive: 0.011.

Consider SLC25A17 (UniProt O43808), for which the log2 fold change is inactive: -0.015.

On to SLC25A32 (UniProt Q9H2D1), for which the log2 fold change was inactive: 0.02.

For SLC12A9 (UniProt Q9BXP2), the log2 fold change is inactive: -0.001.

Consider SLC1A5 (UniProt Q15758), for which the log2 fold change was inactive: 0.028.

Take SLC6A8 (UniProt P48029): the log2 fold change was inactive: 0.058.

As for SLC3A2 isoform 3 (UniProt P08195), the log2 fold change was inactive: 0.045.

SLC25A1 (UniProt P53007): the log2 fold change is inactive: 0.005.

Turning to SLC20A1 (UniProt Q8WUM9), the log2 fold change was inactive: -0.014.

Regarding SLC12A2 (UniProt P55011), the log2 fold change was inactive: 0.033.

Regarding SLC38A10 (UniProt Q9HBR0), the log2 fold change is inactive: 0.055.

Regarding SLC5A3 (UniProt P53794), the log2 fold change is inactive: 0.052.

For the target SLC5A6 (UniProt Q9Y289), the log2 fold change was inactive: 0.022.

With SLC25A15 (UniProt Q9Y619), the log2 fold change was inactive: 0.018.

Compound in another assay: CC(=O)c1cnc2ccc(-c3cc(Cl)c(O)c(Cl)c3)nc2c1N[C@H]1CC[C@H](CN(C)C)CC1
Described as above. Summed up: as §1
As for SLC25A33 (UniProt Q9BSK2), the log2 fold change is inactive: -0.036.

On to SLC4A7 isoform 7 (UniProt Q9Y6M7), for which the log2 fold change was inactive: -0.142.

For the target SLC25A12 (UniProt O75746), the log2 fold change was inactive: 0.02.

On to SLC12A6 isoform 2 (UniProt Q9UHW9), for which the log2 fold change is inactive: -0.089.

Take SLC39A7 (UniProt Q92504): the log2 fold change is inactive: -0.015.

As for SLC43A3 isoform 2 (UniProt Q8NBI5), the log2 fold change is inactive: -0.056.

As for SLC37A4 isoform 2 (UniProt O43826), the log2 fold change was inactive: 0.03.

For the target SLC25A11 (UniProt Q02978), the log2 fold change is inactive: 0.029.

On to SLC25A21 (UniProt Q9BQT8), for which the log2 fold change is inactive: 0.019.

For the target SLC25A10 isoform 2 (UniProt Q9UBX3), the log2 fold change is inactive: 0.021.

For SLC25A19 (UniProt Q9HC21), the log2 fold change is inactive: 0.049.

SLC2A1 (UniProt P11166): the log2 fold change was inactive: -0.053.

Take SLC29A1 isoform 2 (UniProt Q99808): the log2 fold change is inactive: -0.031.

As to SLC30A9 (UniProt Q6PML9), the log2 fold change was inactive: -0.045.

Turning to SLC25A20 (UniProt O43772), the log2 fold change was inactive: 0.026.

Regarding SLC39A10 (UniProt Q9ULF5), the log2 fold change is inactive: -0.007.

For the target SLC20A2 (UniProt Q08357), the log2 fold change was inactive: 0.056.

For the target SLC1A4 (UniProt P43007), the log2 fold change was inactive: -0.011.

Consider SLC30A5 (UniProt Q8TAD4), for which the log2 fold change is inactive: -0.043.

As to SLC25A3 isoform 2 (UniProt Q00325), the log2 fold change was inactive: 0.006.

As for SLC7A5 (UniProt Q01650), the log2 fold change was inactive: -0.06.

Take SLC35B3 (UniProt Q9H1N7): the log2 fold change was inactive: -0.094.

In the case of SLC7A1 (UniProt P30825), the log2 fold change is inactive: -0.094.

Take SLC25A40 (UniProt Q8TBP6): the log2 fold change was inactive: -0.003.

With SLC2A3 (UniProt P11169), the log2 fold change was inactive: -0.04.

Consider SLC26A6 (UniProt Q9BXS9), for which the log2 fold change is inactive: -0.008.

Turning to SLC25A17 (UniProt O43808), the log2 fold change was inactive: 0.051.

Turning to SLC25A32 (UniProt Q9H2D1), the log2 fold change was inactive: 0.005.

Consider SLC12A9 (UniProt Q9BXP2), for which the log2 fold change is inactive: 0.016.

Consider SLC1A5 (UniProt Q15758), for which the log2 fold change is inactive: 0.013.

For SLC6A8 (UniProt P48029), the log2 fold change was inactive: 0.044.

Regarding SLC3A2 isoform 3 (UniProt P08195), the log2 fold change was inactive: -0.021.

On to SLC25A1 (UniProt P53007), for which the log2 fold change was inactive: 0.049.

As to SLC20A1 (UniProt Q8WUM9), the log2 fold change is inactive: -0.051.

On to SLC12A2 (UniProt P55011), for which the log2 fold change was inactive: -0.063.

In the case of SLC38A10 (UniProt Q9HBR0), the log2 fold change was inactive: -0.012.

Turning to SLC5A3 (UniProt P53794), the log2 fold change was inactive: -0.014.

Turning to SLC5A6 (UniProt Q9Y289), the log2 fold change is inactive: 0.031.

SLC25A15 (UniProt Q9Y619): the log2 fold change was inactive: 0.009.
